Test results as given in patent US20150030583A1, “Methods of Treating Serosal Cancer” (SLOAN KETTERING INSTITUTE FOR CANCER RESEARCH, priority 2011, published 2015).
Like-named read-outs stand apart in the source and are kept apart here.

System: Ovcar3-GTL catenae
Assay: Ovcar3-GTL catena drug sensitivity / proliferation screen (alamarBlue, 384-well)
[1] = read-out: IC50 (μM) No coat, pathway-specific inhibitors, catena cells without glycocalyx coat
[2] = read-out: IC50 (μM) With coat, pathway-specific inhibitors, catena cells with glycocalyx coat

Row | SMILES | IC50 [1] [µM] | IC50 [2] [µM] | IC50 (24 h, read-out: IC50 (μM) Addition on Day 1, Ovcar3-GTL catenae, compound added one day after seeding (cells predominantly lacking a glycocalyx)) [µM] | IC50 (144 h, read-out: IC50 (μM) Addition on Day 6, Ovcar3-GTL catenae, compound added six days after seeding (established or substantial glycocalyx)) [µM] | Fold resistance (increased resistance of catena cells with glycocalyx coat versus no coat) [fold] | Increase in Resistance Day6/Day 1 (ratio of IC50 day 6 to day 1, Ovcar3-GTL catenae) [fold]
1 | CNC(=O)c1ccccc1Sc1ccc2c(/C=C/c3ccccn3)n[nH]c2c1 [Axitinib] | 13.4 | > 25 | – | – | – | –
2 | O=C(CCCCCCC(=O)Nc1ccccc1)NO [SAHA, Vorinostat] | 0.78 | 3.14 | 1.5 | 12 | 4 | 8
